The supplement of paper PMC6078165
The reference is the same well before dosing, and untreated signal decays as well.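 Labels refer to human fibroblasts, largely primary: uterine (C12385, HUF), lung (H6013), bone (Hs27A), adrenal (HADF), skin (WS1), plus mammary HMF and breast cancer-associated Hs343T. Cancer lines are basal-like or mesenchymal-like triple-negative breast cancer. The paper counts as hits responses shifting over 3x the replicate standard deviation. The tissue of the other fibroblasts is not given here.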

System: HCC1143
Test: relative JC-1 red fluorescence (viability) vs pre-drug, coculture with fibroblast (fraction); higher = more viable cancer cells
Protocol: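 JC-1 labelled TNBC cells cocultured 1:1 (1,500 cells each) with CellTrace Violet stained primary or stromal fibroblasts in 384-well plates in FluoroBrite medium, treated with one of 42 anticancer drugs at 0.1, 1, 10 or 100 uM. JC-1 red fluorescence (mitochondrial integrity in cancer cells only) was read by plate reader every 8 h for 72 h. Values are normalised to each well's pre-drug value. The stock of one drug was tenfold lower, so its dose labels may be too high.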

Nc1ccn([C@@H]2O[C@H](CO)[C@@H](O)C2(F)F)c(=O)n1 [Gemcitabine]
relative JC-1 red fluorescence
Settings | 8 h | 16 h | 24 h | 32 h | 40 h | 48 h | 56 h | 64 h | 72 h
0.1 µM, coculture fibroblast: C12385 | 0.8509 | 0.77 | 0.687 | 0.61 | 0.54 | 0.485 | 0.444 | 0.415 | 0.406
0.1 µM, coculture fibroblast: H6013 | 0.7511 | 0.591 | 0.5653 | 0.551 | 0.475 | 0.4852 | 0.453 | 0.4436 | 0.3936
0.1 µM, coculture fibroblast: H6019 | 0.7924 | 0.693 | 0.6456 | 0.579 | 0.536 | 0.513 | 0.4675 | 0.427 | 0.3957
0.1 µM, coculture fibroblast: H6076 | 0.8014 | 0.73 | 0.687 | 0.641 | 0.595 | 0.591 | 0.565 | 0.5395 | 0.551
0.1 µM, coculture fibroblast: H6231 | 0.808 | 0.897 | 0.771 | 0.546 | 0.6346 | 0.567 | 0.521 | 0.477 | 0.444
0.1 µM, coculture fibroblast: HADF | 0.794 | 0.725 | 0.692 | 0.687 | 0.611 | 0.596 | 0.567 | 0.54 | 0.476
0.1 µM, coculture fibroblast: HCFa | 0.762 | 0.623 | 0.591 | 0.565 | 0.481 | 0.448 | 0.404 | 0.3684 | 0.3322
0.1 µM, coculture fibroblast: HCPF | 0.774 | 0.83 | 0.7439 | 0.592 | 0.637 | 0.592 | 0.545 | 0.497 | 0.481
0.1 µM, coculture fibroblast: HHSteC | 0.8102 | 0.715 | 0.69 | 0.66 | 0.586 | 0.563 | 0.527 | 0.502 | 0.457
0.1 µM, coculture fibroblast: HMF | 0.7988 | 0.813 | 0.744 | 0.661 | 0.67 | 0.647 | 0.594 | 0.564 | 0.542
0.1 µM, coculture fibroblast: HPFa | 0.9066 | 0.795 | 0.739 | 0.646 | 0.583 | 0.54 | 0.488 | 0.442 | 0.402
0.1 µM, coculture fibroblast: HUF | 0.8508 | 0.7147 | 0.652 | 0.571 | 0.51 | 0.485 | 0.439 | 0.402 | 0.37
0.1 µM, coculture fibroblast: Hs5 | 0.8416 | 0.796 | 0.75 | 0.728 | 0.657 | 0.633 | 0.608 | 0.591 | 0.598
0.1 µM, coculture fibroblast: Hs27A | 0.708 | 0.61 | 0.592 | 0.624 | 0.512 | 0.515 | 0.48 | 0.469 | 0.477
0.1 µM, coculture fibroblast: Hs343T | 0.8014 | 0.794 | 0.737 | 0.6531 | 0.627 | 0.591 | 0.541 | 0.512 | 0.478
0.1 µM, coculture fibroblast: WS1 | 0.8246 | 0.714 | 0.655 | 0.588 | 0.531 | 0.488 | 0.44 | 0.408 | 0.388
1 µM, coculture fibroblast: C12385 | 0.839 | 0.7253 | 0.693 | 0.621 | 0.556 | 0.512 | 0.476 | 0.436 | 0.43
1 µM, coculture fibroblast: H6013 | 0.734 | 0.645 | 0.605 | 0.578 | 0.511 | 0.499 | 0.476 | 0.468 | 0.434
1 µM, coculture fibroblast: H6019 | 0.8014 | 0.693 | 0.643 | 0.567 | 0.5247 | 0.492 | 0.443 | 0.407 | 0.376
1 µM, coculture fibroblast: H6076 | 0.824 | 0.758 | 0.735 | 0.725 | 0.649 | 0.636 | 0.614 | 0.593 | 0.603
1 µM, coculture fibroblast: H6231 | 0.7842 | 0.796 | 0.698 | 0.549 | 0.5716 | 0.53029 | 0.471 | 0.434 | 0.4
1 µM, coculture fibroblast: HADF | 0.74 | 0.65 | 0.625 | 0.62 | 0.525 | 0.501 | 0.464 | 0.435 | 0.401
1 µM, coculture fibroblast: HCFa | 0.766 | 0.6674 | 0.612 | 0.575 | 0.483 | 0.456 | 0.4066 | 0.37 | 0.324
1 µM, coculture fibroblast: HCPF | 0.803 | 0.7638 | 0.721 | 0.638 | 0.64 | 0.612 | 0.563 | 0.532 | 0.512
1 µM, coculture fibroblast: HHSteC | 0.822 | 0.702 | 0.656 | 0.62 | 0.546 | 0.526 | 0.477 | 0.45 | 0.39
1 µM, coculture fibroblast: HMF | 0.7876 | 0.781 | 0.705 | 0.617 | 0.605 | 0.5736 | 0.528 | 0.487 | 0.453
1 µM, coculture fibroblast: HPFa | 0.9032 | 0.799 | 0.757 | 0.664 | 0.6 | 0.564 | 0.505 | 0.467 | 0.43
1 µM, coculture fibroblast: HUF | 0.86 | 0.791 | 0.751 | 0.676 | 0.635 | 0.607 | 0.541 | 0.502 | 0.476
1 µM, coculture fibroblast: Hs5 | 0.851 | 0.886 | 0.8334 | 0.768 | 0.712 | 0.668 | 0.617 | 0.591 | 0.564
1 µM, coculture fibroblast: Hs27A | 0.713 | 0.628 | 0.5919 | 0.61037 | 0.505 | 0.5 | 0.474 | 0.466 | 0.429
1 µM, coculture fibroblast: Hs343T | 0.7775 | 0.822 | 0.733 | 0.6089 | 0.599 | 0.55 | 0.488 | 0.448 | 0.405
1 µM, coculture fibroblast: WS1 | 0.825 | 0.726 | 0.712 | 0.658 | 0.609 | 0.583 | 0.534 | 0.5 | 0.482
